Measured values from paper PMC8384837.
Changes are numbered by the printed parent chain. This is one part of the list. For part of these data: At the low end of the ranking the order means little. For part of these data: Construct or isoform of the protein are uncertain.

Key:
Details in all cases: yeast three-hybrid, YBZ-1, SC-Leu-His + 0.5 mM 3-AT, 4 days
[1] = target: T1, PUM1 PUF domain R1-QFR R2-VFQ R7-NPG S863Q + R864F + Q867R + N899V + Y900F + S1079N + N1080P + E1083G (UniProt Q14671)
T1 sequence: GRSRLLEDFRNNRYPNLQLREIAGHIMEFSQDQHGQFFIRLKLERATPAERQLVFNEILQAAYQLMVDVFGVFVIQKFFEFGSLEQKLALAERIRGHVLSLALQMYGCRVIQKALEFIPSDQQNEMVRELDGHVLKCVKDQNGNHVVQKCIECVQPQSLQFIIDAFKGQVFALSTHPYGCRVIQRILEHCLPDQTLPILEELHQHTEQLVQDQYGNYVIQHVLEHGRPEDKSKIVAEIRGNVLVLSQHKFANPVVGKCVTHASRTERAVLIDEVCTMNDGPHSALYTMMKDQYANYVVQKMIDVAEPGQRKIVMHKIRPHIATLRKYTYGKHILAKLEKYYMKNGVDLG

[2] = target: T2, PUM1 PUF domain R3-THE R4-TFR C935T + R936H + Q939E + N971T + H972F + Q975R (UniProt Q14671)
T2 sequence: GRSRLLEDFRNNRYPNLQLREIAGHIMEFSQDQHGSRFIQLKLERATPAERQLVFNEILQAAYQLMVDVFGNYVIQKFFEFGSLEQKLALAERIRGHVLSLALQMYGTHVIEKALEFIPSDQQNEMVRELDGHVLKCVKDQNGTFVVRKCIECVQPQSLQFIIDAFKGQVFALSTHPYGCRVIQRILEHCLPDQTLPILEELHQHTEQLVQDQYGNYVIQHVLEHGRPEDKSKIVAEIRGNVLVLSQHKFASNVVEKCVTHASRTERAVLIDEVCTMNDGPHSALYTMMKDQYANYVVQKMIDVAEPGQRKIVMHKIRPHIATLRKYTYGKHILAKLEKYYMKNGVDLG

[3] = target: T3, PUM1 PUF domain R5-PHQ R6-SWD C1007P + R1008H + N1043S + Y1044W + Q1047D (UniProt Q14671)
T3 sequence: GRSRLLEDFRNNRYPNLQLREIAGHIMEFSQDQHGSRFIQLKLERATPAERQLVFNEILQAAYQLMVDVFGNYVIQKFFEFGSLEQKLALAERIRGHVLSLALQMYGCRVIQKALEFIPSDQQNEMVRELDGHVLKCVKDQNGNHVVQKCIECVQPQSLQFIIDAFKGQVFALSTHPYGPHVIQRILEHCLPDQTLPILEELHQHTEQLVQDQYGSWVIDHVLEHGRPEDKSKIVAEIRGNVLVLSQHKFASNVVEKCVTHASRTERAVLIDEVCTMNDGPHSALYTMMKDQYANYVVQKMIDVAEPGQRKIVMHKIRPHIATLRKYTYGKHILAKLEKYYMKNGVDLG

[4] = target: T4, PUM1 PUF domain R6-SWD R7-NPG N1043S + Y1044W + Q1047D + S1079N + N1080P + E1083G (Homo sapiens) (UniProt Q14671)
T4 sequence: T3 sequence with P180C, H181R, S252N, N253P, E256G

[5] = target: T5, PUM1 PUF domain R3-THE R4-TFR R7-NPG C935T + R936H + Q939E + N971T + H972F + Q975R + S1079N + N1080P + E1083G (Homo sapiens) (UniProt Q14671)
T5 sequence: T2 sequence with S252N, N253P, E256G

[6] = target: T6, PUM1 PUF domain R3-THE R4-TFR R7-NPG C935T + R936H + Q939E + N971T + H972F + Q975R + S1079N + N1080P + E1083G (UniProt Q14671)
T6 sequence: T2 sequence with S252N, N253P, E256G

| Sequence | binding signal (log2 enrichment (interaction score)) [1] | binding signal (log2 enrichment (interaction score)) [2] | binding signal (log2 enrichment (interaction score)) [3] | binding signal (log2 enrichment (interaction score)) [4] | binding signal (log2 enrichment (interaction score)) [5] | binding signal (log2 enrichment (interaction score)) [6] |
| --- | --- | --- | --- | --- | --- | --- |
| GGCUAGAACUAGUGGAUCCCCCGGCGCCCGGCGGCUCGAGCCCGGGUAAGUGGAAGGCGUCUGCAUGCCGCCGGGCGCCAUGCCUGCAGGUCGACUCUAGAAAACAUG | -5.3 | < -6.79 | < -9.03 |  |  |  |
| GGCUAGAACUAGUGGAUCCCCCGGCGCCCGGCGGCUCGAGCCCGGGUAAGUCGUCAUAGUCUGCAUGCCGCCGGGCGCCAUGCCUGCAGGUCGACUCUAGAAAACAUG | < -6.34 | -7.54 | -7.59 | -0.65 |  |  |
| GGCUAGAACUAGUGGAUCCCCCGGCGCCCGGCGGCUCGAGCCCGGGUAAGUGUACCAAGUCUGCAUGCCGCCGGGCGCCAUGCCUGCAGGUCGACUCUAGAAAACAUG | -6.37 | -6.61 | < -7.14 | -1.72 |  |  |
| GGCUAGAACUAGUGGAUCCCCCGGCGCCCGGCGGCUCGAGCCCGGGUAAGCUUAAAUUGUCUGCAUGCCGCCGGGCGCCAUGCCUGCAGGUCGACUCUAGAAAACAUG | -6.7 | -7.58 | < -7.67 |  |  |  |
| GGCUAGAACUAGUGGAUCCCCCGGCGCCCGGCGGCUCGAGCCCGGGUAAGUGCAAGAUGUCUGCAUGCCGCCGGGCGCCAUGCCUGCAGGUCGACUCUAGAAAACAUG | -5.68 | -6.69 | -8.54 |  |  |  |
| GGCUAGAACUAGUGGAUCCCCCGGCGCCCGGCGGCUCGAGCCCGGGUAAGUUAACGUAGUCUGCAUGCCGCCGGGCGCCAUGCCUGCAGGUCGACUCUAGAAAACAUG | -5.37 | -7.38 | < -8.34 | -1.33 |  |  |
| GGCUAGAACUAGUGGAUCCCCCGGCGCCCGGCGGCUCGAGCCCGGGUAAGUCUACGCAGUCUGCAUGCCGCCGGGCGCCAUGCCUGCAGGUCGACUCUAGAAAACAUG | < -5.88 | -6.11 |  | -0.61 |  |  |
| GGCUAGAACUAGUGGAUCCCCCGGCGCCCGGCGGCUCGAGCCCGGGUAAGUGUACAUCGUCUGCAUGCCGCCGGGCGCCAUGCCUGCAGGUCGACUCUAGAAAACAUG | -5.66 | -7.65 | -8.63 | -0.94 |  |  |
| GGCUAGAACUAGUGGAUCCCCCGGCGCCCGGCGGCUCGAGCCCGGGUAAGUGUCAGCAGUCUGCAUGCCGCCGGGCGCCAUGCCUGCAGGUCGACUCUAGAAAACAUG | < -5.66 | -7.15 | < -8.56 |  |  |  |
| GGCUAGAACUAGUGGAUCCCCCGGCGCCCGGCGGCUCGAGCCCGGGUAAGGUGAGGUAGUCUGCAUGCCGCCGGGCGCCAUGCCUGCAGGUCGACUCUAGAAAACAUG | -6.33 | < -7.7 | < -8.58 |  |  |  |
| GGCUAGAACUAGUGGAUCCCCCGGCGCCCGGCGGCUCGAGCCCGGGUAAGUGCAAGUAGUCUGCAUGCCGCCGGGCGCCAUGCCUGCAGGUCGACUCUAGAAAACAUG | -6.5 | -6.43 | -7.29 |  |  |  |
| GGCUAGAACUAGUGGAUCCCCCGGCGCCCGGCGGCUCGAGCCCGGGUAAGUACACACAGUCUGCAUGCCGCCGGGCGCCAUGCCUGCAGGUCGACUCUAGAAAACAUG | -4.42 | < -6.59 | -8 |  |  |  |
| GGCUAGAACUAGUGGAUCCCCCGGCGCCCGGCGGCUCGAGCCCGGGUAAGUAGAAAUCGUCUGCAUGCCGCCGGGCGCCAUGCCUGCAGGUCGACUCUAGAAAACAUG | -5.78 | -6.72 | -6.83 | -0.93 |  |  |
| GGCUAGAACUAGUGGAUCCCCCGGCGCCCGGCGGCUCGAGCCCGGGUAAGUAUAAAAAGUCUGCAUGCCGCCGGGCGCCAUGCCUGCAGGUCGACUCUAGAAAACAUG | -5.04 | < -6.61 | < -7.84 |  |  |  |
| GGCUAGAACUAGUGGAUCCCCCGGCGCCCGGCGGCUCGAGCCCGGGUAAGGGAACAUAGUCUGCAUGCCGCCGGGCGCCAUGCCUGCAGGUCGACUCUAGAAAACAUG | -3.89 | < -5.89 | -6.7 |  |  |  |
| GGCUAGAACUAGUGGAUCCCCCGGCGCCCGGCGGCUCGAGCCCGGGUAAGUGGCAAAAGUCUGCAUGCCGCCGGGCGCCAUGCCUGCAGGUCGACUCUAGAAAACAUG | -5.94 |  | -8.04 |  | -0.64 |  |
| GGCUAGAACUAGUGGAUCCCCCGGCGCCCGGCGGCUCGAGCCCGGGUAAGCUCAAUAUGUCUGCAUGCCGCCGGGCGCCAUGCCUGCAGGUCGACUCUAGAAAACAUG | -6.22 |  |  |  | < -1.2 |  |
| GGCUAGAACUAGUGGAUCCCCCGGCGCCCGGCGGCUCGAGCCCGGGUAAGUGCACACAGUCUGCAUGCCGCCGGGCGCCAUGCCUGCAGGUCGACUCUAGAAAACAUG | -7.04 |  | < -8.6 |  | -1.51 |  |
| GGCUAGAACUAGUGGAUCCCCCGGCGCCCGGCGGCUCGAGCCCGGGUAAGGUUACUUGGUCUGCAUGCCGCCGGGCGCCAUGCCUGCAGGUCGACUCUAGAAAACAUG | -5.54 |  |  |  |  | -2.39 |
| GGCUAGAACUAGUGGAUCCCCCGGCGCCCGGCGGCUCGAGCCCGGGUAAGUGGAAGGAGUCUGCAUGCCGCCGGGCGCCAUGCCUGCAGGUCGACUCUAGAAAACAUG | -5.69 |  | < -7.4 |  | -1.81 |  |

Part of the list above, bar-delimited:
Sequence | binding signal (log2 enrichment (interaction score)) [1] | binding signal (log2 enrichment (interaction score)) [2] | binding signal (log2 enrichment (interaction score)) [3] | binding signal (log2 enrichment (interaction score)) [4] | binding signal (log2 enrichment (interaction score)) [5] | binding signal (log2 enrichment (interaction score)) [6]
GGCUAGAACUAGUGGAUCCCCCGGCGCCCGGCGGCUCGAGCCCGGGUAAGUGUACCAAGUCUGCAUGCCGCCGGGCGCCAUGCCUGCAGGUCGACUCUAGAAAACAUG | -6.37 | -6.61 | < -7.14 | -1.72 |  | 
GGCUAGAACUAGUGGAUCCCCCGGCGCCCGGCGGCUCGAGCCCGGGUAAGCUUAAAUUGUCUGCAUGCCGCCGGGCGCCAUGCCUGCAGGUCGACUCUAGAAAACAUG | -6.7 | -7.58 | < -7.67 |  |  | 
GGCUAGAACUAGUGGAUCCCCCGGCGCCCGGCGGCUCGAGCCCGGGUAAGUGCAAGAUGUCUGCAUGCCGCCGGGCGCCAUGCCUGCAGGUCGACUCUAGAAAACAUG | -5.68 | -6.69 | -8.54 |  |  | 
GGCUAGAACUAGUGGAUCCCCCGGCGCCCGGCGGCUCGAGCCCGGGUAAGUUAACGUAGUCUGCAUGCCGCCGGGCGCCAUGCCUGCAGGUCGACUCUAGAAAACAUG | -5.37 | -7.38 | < -8.34 | -1.33 |  | 
GGCUAGAACUAGUGGAUCCCCCGGCGCCCGGCGGCUCGAGCCCGGGUAAGUCUACGCAGUCUGCAUGCCGCCGGGCGCCAUGCCUGCAGGUCGACUCUAGAAAACAUG | < -5.88 | -6.11 |  | -0.61 |  | 
